Test results from paper PMC8964741.
These are yes or no findings as the source states them, for the method shown. Binding seen in cells or lysates may run through a third protein. A yes stands for co-enrichment or nearness to the bait. Other partners may have been found. Where a sequence is shown, tags or fusion partners need not be part of it.

Protein sequences, listed by entry. Tags and fused reporters are not part of them.
UniProt Q02880: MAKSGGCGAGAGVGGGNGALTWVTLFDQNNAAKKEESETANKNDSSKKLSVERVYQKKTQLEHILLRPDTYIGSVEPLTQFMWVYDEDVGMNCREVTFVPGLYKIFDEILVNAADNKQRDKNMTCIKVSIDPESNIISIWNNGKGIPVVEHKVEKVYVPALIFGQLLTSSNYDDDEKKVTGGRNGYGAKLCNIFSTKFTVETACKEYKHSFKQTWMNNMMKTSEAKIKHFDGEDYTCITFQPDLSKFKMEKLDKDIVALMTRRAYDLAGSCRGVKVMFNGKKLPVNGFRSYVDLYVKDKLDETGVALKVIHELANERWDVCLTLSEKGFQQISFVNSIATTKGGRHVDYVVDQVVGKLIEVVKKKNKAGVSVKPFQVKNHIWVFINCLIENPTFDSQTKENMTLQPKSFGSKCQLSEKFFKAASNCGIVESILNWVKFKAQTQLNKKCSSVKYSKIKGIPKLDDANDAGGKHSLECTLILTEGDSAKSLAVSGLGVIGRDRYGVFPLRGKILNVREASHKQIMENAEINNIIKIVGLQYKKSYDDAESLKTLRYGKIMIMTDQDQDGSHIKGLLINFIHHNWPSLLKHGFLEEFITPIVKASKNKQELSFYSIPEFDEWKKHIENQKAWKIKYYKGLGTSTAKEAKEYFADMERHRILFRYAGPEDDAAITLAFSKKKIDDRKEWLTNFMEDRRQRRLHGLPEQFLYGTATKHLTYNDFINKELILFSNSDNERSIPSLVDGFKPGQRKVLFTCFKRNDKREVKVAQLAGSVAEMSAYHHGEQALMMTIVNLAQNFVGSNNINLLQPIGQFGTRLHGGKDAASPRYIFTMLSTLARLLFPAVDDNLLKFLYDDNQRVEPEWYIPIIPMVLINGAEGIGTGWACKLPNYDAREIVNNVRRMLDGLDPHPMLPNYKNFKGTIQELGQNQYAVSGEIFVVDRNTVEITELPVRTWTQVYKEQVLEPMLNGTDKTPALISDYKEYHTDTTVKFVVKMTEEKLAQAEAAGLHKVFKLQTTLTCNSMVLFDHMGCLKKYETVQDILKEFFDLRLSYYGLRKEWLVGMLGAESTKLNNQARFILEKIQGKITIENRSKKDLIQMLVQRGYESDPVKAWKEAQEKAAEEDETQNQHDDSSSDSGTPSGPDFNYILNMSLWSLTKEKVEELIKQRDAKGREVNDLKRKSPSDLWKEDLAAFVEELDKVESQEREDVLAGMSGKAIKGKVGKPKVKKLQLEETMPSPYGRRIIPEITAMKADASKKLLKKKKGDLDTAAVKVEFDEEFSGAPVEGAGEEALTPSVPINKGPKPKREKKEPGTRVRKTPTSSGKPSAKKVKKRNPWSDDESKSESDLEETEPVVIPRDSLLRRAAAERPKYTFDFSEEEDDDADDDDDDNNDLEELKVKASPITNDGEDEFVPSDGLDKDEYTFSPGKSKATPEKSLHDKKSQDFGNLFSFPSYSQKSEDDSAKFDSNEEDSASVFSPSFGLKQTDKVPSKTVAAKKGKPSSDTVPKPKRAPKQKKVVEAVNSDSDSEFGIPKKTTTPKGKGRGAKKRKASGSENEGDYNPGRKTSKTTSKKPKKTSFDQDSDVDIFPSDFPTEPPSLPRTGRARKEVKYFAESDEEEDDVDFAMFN

T1: SBP-Flag-ACOX2 (acyl-CoA oxidase 2) (UniProt Q99424)
T1 sequence: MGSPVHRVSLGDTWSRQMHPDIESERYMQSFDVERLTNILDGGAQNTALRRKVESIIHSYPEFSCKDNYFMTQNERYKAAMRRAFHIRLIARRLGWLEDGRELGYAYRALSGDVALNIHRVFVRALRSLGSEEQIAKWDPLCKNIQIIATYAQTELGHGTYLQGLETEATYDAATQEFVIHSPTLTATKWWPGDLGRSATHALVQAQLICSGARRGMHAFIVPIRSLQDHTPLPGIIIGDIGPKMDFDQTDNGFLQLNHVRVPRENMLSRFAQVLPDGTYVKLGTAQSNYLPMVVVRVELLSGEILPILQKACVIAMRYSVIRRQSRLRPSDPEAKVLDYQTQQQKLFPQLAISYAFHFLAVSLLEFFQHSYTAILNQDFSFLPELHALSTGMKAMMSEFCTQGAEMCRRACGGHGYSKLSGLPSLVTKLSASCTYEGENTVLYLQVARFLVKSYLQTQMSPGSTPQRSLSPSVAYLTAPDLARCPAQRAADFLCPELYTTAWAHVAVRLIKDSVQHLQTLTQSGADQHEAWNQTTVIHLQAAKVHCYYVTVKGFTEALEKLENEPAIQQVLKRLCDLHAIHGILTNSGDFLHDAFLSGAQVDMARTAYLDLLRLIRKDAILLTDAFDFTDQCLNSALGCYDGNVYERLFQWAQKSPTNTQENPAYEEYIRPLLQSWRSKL

B1: propionyl-CoA carboxylase subunit alpha (PCCA) (enzyme, UniProt P05165 53-728)
chain: SVGYDPNEKTFDKILVANRGEIACRVIRTCKKMGIKTVAIHSDVDASSVHVKMADEAVCVGPAPTSKSYLNMDAIMEAIKKTRAQAVHPGYGFLSENKEFARCLAAEDVVFIGPDTHAIQAMGDKIESKLLAKKAEVNTIPGFDGVVKDAEEAVRIAREIGYPVMIKASAGGGGKGMRIAWDDEETRDGFRLSSQEAASSFGDDRLLIEKFIDNPRHIEIQVLGDKHGNALWLNERECSIQRRNQKVVEEAPSIFLDAETRRAMGEQAVALARAVKYSSAGTVEFLVDSKKNFYFLEMNTRLQVEHPVTECITGLDLVQEMIRVAKGYPLRHKQADIRINGWAVECRVYAEDPYKSFGLPSIGRLSQYQEPLHLPGVRVDSGIQPGSDISIYYDPMISKLITYGSDRTEALKRMADALDNYVIRGVTHNIALLREVIINSRFVKGDISTKFLSDVYPDGFKGHMLTKSEKNQLLAIASSLFVAFQLRAQHFQENSRMPVIKPDIANWELSVKLHDKVHTVVASNNGSVFSVEVDGSKLNVTSTWNLASPLLSVSVDGTQRTVQCLSREAGGNMSIQFLGTVYKVNILTRLAAELNKFMLEKVTEDTSSVLRSPMPGVVVAVSVKPGDAVAEGQEICVIEAMKMQNSMTAGKTGTVKSVHCQAGDTVGEGDLLVELE
B2: SBP-Flag-ACOX2 (acyl-CoA oxidase 2) (enzyme, UniProt Q99424 1-681)
chain: T1 sequence
B3: methylcrotonoyl-CoA carboxylase subunit alpha (MCCA) (enzyme, UniProt Q96RQ3 42-725)
chain: TTATGRNITKVLIANRGEIACRVMRTAKKLGVQTVAVYSEADRNSMHVDMADEAYSIGPAPSQQSYLSMEKIIQVAKTSAAQAIHPGCGFLSENMEFAELCKQEGIIFIGPPPSAIRDMGIKSTSKSIMAAAGVPVVEGYHGEDQSDQCLKEHARRIGYPVMIKAVRGGGGKGMRIVRSEQEFQEQLESARREAKKSFNDDAMLIEKFVDTPRHVEVQVFGDHHGNAVYLFERDCSVQRRHQKIIEEAPAPGIKSEVRKKLGEAAVRAAKAVNYVGAGTVEFIMDSKHNFCFMEMNTRLQVEHPVTEMITGTDLVEWQLRIAAGEKIPLSQEEITLQGHAFEARIYAEDPSNNFMPVAGPLVHLSTPRADPSTRIETGVRQGDEVSVHYDPMIAKLVVWAADRQAALTKLRYSLRQYNIVGLHTNIDFLLNLSGHPEFEAGNVHTDFIPQHHKQLLLSRKAAAKESLCQAALGLILKEKAMTDTFTLQAHDQFSPFSSSSGRRLNISYTRNMTLKDGKNNVAIAVTYNHDGSYSMQIEDKTFQVLGNLYSEGDCTYLKCSVNGVASKAKLIILENTIYLFSKEGSIEIDIPVPKYLSSVSSQETQGGPLAPMTGTIEKVFVKAGDKVKAGDSLMVMIAMKMEHTIKSPKDGTVKKVFYREGAQANRHTPLVEFEEEESDKRESE
B4: propionyl-CoA carboxylase subunit beta (PCCB) (enzyme, UniProt P05166 29-539)
chain: CSQATSVNERIENKRRTALLGGGQRRIDAQHKRGKLTARERISLLLDPGSFVESDMFVEHRCADFGMAADKNKFPGDSVVTGRGRINGRLVYVFSQDFTVFGGSLSGAHAQKICKIMDQAITVGAPVIGLNDSGGARIQEGVESLAGYADIFLRNVTASGVIPQISLIMGPCAGGAVYSPALTDFTFMVKDTSYLFITGPDVVKSVTNEDVTQEELGGAKTHTTMSGVAHRAFENDVDALCNLRDFFNYLPLSSQDPAPVRECHDPSDRLVPELDTIVPLESTKAYNMVDIIHSVVDEREFFEIMPNYAKNIIVGFARMNGRTVGIVGNQPKVASGCLDINSSVKGARFVRFCDAFNIPLITFVDVPGFLPGTAQEYGGIIRHGAKLLYAFAEATVPKVTVITRKAYGGAYDVMSSKHLCGDTNYAWPTAEIAVMGAKGAVEIIFKGHENVEAAQAEYIEKFANPFPAAVRGFVDDIIQPSSTRARICCDLDVLASKKVQRPWRKHANIPL
B5: methylcrotonoyl-CoA carboxylase beta chain (MCCB), endogenous (enzyme, UniProt Q9HCC0 23-563)
chain: YHGDSVASLGTQPDLGSALYQENYKQMKALVNQLHERVEHIKLGGGEKARALHISRGKLLPRERIDNLIDPGSPFLELSQFAGYQLYDNEEVPGGGIITGIGRVSGVECMIIANDATVKGGAYYPVTVKKQLRAQEIAMQNRLPCIYLVDSGGAYLPRQADVFPDRDHFGRTFYNQAIMSSKNIAQIAVVMGSCTAGGAYVPAMADENIIVRKQGTIFLAGPPLVKAATGEEVSAEDLGGADLHCRKSGVSDHWALDDHHALHLTRKVVRNLNYQKKLDVTIEPSEEPLFPADELYGIVGANLKRSFDVREVIARIVDGSRFTEFKAFYGDTLVTGFARIFGYPVGIVGNNGVLFSESAKKGTHFVQLCCQRNIPLLFLQNITGFMVGREYEAEGIAKDGAKMVAAVACAQVPKITLIIGGSYGAGNYGMCGRAYSPRFLYIWPNARISVMGGEQAANVLATITKDQRAREGKQFSSADEAALKEPIIKKFEEEGNPYYSSARVWDDGIIDPADTRLVLGLSFSAALNAPIEKTDFGIFRM

Each molecule was assayed against T1, SBP-Flag-ACOX2 (acyl-CoA oxidase 2) (assay: affinity purification with mass spectrometry; TAP-MS: MHCC97H and HEK-293T cells (each analysed) transfected with pMCB-SBP-Flag-ACOX2; lysed in 0.1% NP40 buffer (20 mM Tris-HCl pH 8.0, 150 mM NaCl); lysate on streptavidin-conjugated beads 3 h at 4 °C; washed, tryptic digestion on beads, mass spectrometry).

binding, binds:
DNA topoisomerase TOP2B (from UniProt Q02880 1-1626) (enzyme)
acetyl-CoA carboxylase 2 (ACACB) (enzyme)
B1
B2
B3
B4
B5
